Results published in patent US4098781A, “Polypeptides with morphine-like activity” (American Home Products Corporation, priority 1977, dated 1978).
For at least one compound, name, drawing or mass did not settle the structure. Peptide text beside a SMILES is read from it.

Test system: rats
Experiment: rat-tail flick method, intracerebroventricular injection
Type: in vivo
Set-up: Mean Latency ± SEM Baseline / Mean Latency ± SEM Drug: unit not given here
Details: lateral ventricle; for Mean % Change ± SEM: change in latency (drug minus baseline); for Mean Latency ± SEM Baseline / Mean Latency ± SEM Drug: rat-tail flick; for Mean Latency ± SEM Baseline: baseline before drug
Protocol: In this test method, which is a standard test for analgesia, a light beam is focused on the tip of the rat's tail, and the pain threshold of the animal is measured by the latency of the rat to remove his tail from the noxious heat source. When tested by the rat-tail flick method by intracerebroventricular injection, according to the procedure of Belluzzi et al., Nature, 260, 625 (1976), the polypeptides of this invention produced the effects set forth in Table I.
*All drugs were dissolved in […]. of Ringer's solution and injected int
the lateral ventricle through permanently-indwelling cannulae.

## CSCC[C@H](NC(=O)[C@H](Cc1ccccc1)NC(=O)CNC(=O)CNC(=O)[C@@H](N)Cc1ccc(O)cc1)C(=O)N[C@H](C(=O)N[C@@H](CO)C(=O)O)[C@@H](C)O [H-Tyr-Gly-Gly-Phe-Met-The-Ser-OH, L-Tyrosyl-Glycyl-Glycyl-L-Phenylalanyl-L-Methionyl-L-Threonyl-L-Serine Acetate] (H-YGGFMTS-OH)
Dose 50 μg
  Mean % Change ± SEM: 82.00%
  Mean Latency ± SEM Drug: 6.38
Dose 100 μg
  Mean % Change ± SEM: 56.42 ± 6.72%
  Mean Latency ± SEM Drug: 5.43 ± 0.22
Dose group 50 μg
  Mean Latency ± SEM Baseline: 3.50
Dose group 100 μg
  Mean Latency ± SEM Baseline: 3.47 ± 0.01
